PubChem BioAssay AID1259405 | NCATS, 2018
Shown is a random part of about 50,000 deposited reagents. Over the whole deposit, about 4,000 (8%) were called active. 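Mouse siRNA library applied to hamster cells; one well for each siRNA.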 The numbers tell different reagents against one gene apart.

Purpose: 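Mouse-designed siRNAs used to find CHO productivity engineering targets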 (primary screen)
Cells: Chinese hamster CHO-K1 ovary cells with stable secreted eGFP expression
Knock-down reagent: single siRNA against mouse genes, 0.8 pmol siRNA per well (2 µl of 400 nM stock)
Time to read-out: 3 days
Measured: 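Percent of the per-plate non-targeting control median for intracellular GFP per well by laser scanning cytometry and for cell viability by ATP luminescence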
Scale: GFP, % of control: higher = more GFP per well, higher productivity; viability (ATP), % of control: higher = more viable cells (more ATP)
Rule for the call: 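Called active when intracellular GFP, relative to negative control, is at or above 120%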

target gene	siRNA no.	GFP, % of control	viability (ATP), % of control	Outcome
Orc2	1	78	87.3	inactive
Orc2	2	96.8	95	inactive
Rpl6	1	42.1	30.2	inactive
Rpl6	2	47.8	22.7	inactive
Rpl6	3	30.7	31.2	inactive
Ston2	1	102	44.6	inactive
Ston2	2	85.6	106	inactive
Ston2	3	110	126	inactive
Timp3	1	37.9	81.3	inactive
Timp3	2	66.6	76.5	inactive
Timp3	3	128	73.4	active
Eef1a1	1	60.8	84.2	inactive
Eef1a1	2	34.8	39.4	inactive
Eef1a1	3	92.5	34.9	inactive
Slc4a3	1	98.8	40.5	inactive
Slc4a3	2	124	67.6	active
Slc4a3	3	101	86.5	inactive
Or4c1	1	39.2	36.4	inactive
Or4c1	2	66.7	76	inactive
Or4c1	3	58.1	76.7	inactive
Hdgfl3	1	79.5	50.9	inactive
Hdgfl3	2	74.8	60.5	inactive
Hdgfl3	3	69	50.3	inactive
Col19a1	1	62	57.8	inactive
Col19a1	2	42.6	30.8	inactive
Col19a1	3	83.1	47.6	inactive

Targets listed so far whose target name starts with O or o:
target gene	siRNA no.	GFP, % of control	viability (ATP), % of control	Outcome
Orc2	1	78	87.3	inactive
Orc2	2	96.8	95	inactive
Or4c1	1	39.2	36.4	inactive
Or4c1	2	66.7	76	inactive
Or4c1	3	58.1	76.7	inactive

The results go on.
target gene	siRNA no.	GFP, % of control	viability (ATP), % of control	Outcome
Htr5b	1	85.1	68.7	inactive
Htr5b	2	59.8	67.9	inactive
Htr5b	3	54.9	65.1	inactive
Teddm2	1	64.3	83	inactive
Teddm2	2	62.1	73.2	inactive
Teddm2	3	69	74.4	inactive
Txndc16	1	11.3	16.6	inactive
Txndc16	2	58.9	69.2	inactive
Txndc16	3	100	91.9	inactive
Pkd1l2	1	111	85	inactive
Pkd1l2	2	76.9	78.6	inactive
Pkd1l2	3	31.4	53.7	inactive
Ube3a	1	78.4	61.1	inactive
Ube3a	2	29.7	17.1	inactive
Ube3a	3	66.7	71.2	inactive
Atad3a	1	86.9	83.1	inactive
Atad3a	2	56.3	71.4	inactive
Atad3a	3	50.2	57.1	inactive
Oga	1	104	67.5	inactive
Oga	2	60.4	68.8	inactive
Oga	3	90.5	74.3	inactive
Apbb1ip	1	31.4	15.8	inactive
Apbb1ip	2	83.1	53.1	inactive
Apbb1ip	3	65.9	60.2	inactive
Ccdc102a	1	74	87.3	inactive
Ccdc102a	2	79.8	78.6	inactive
Ccdc102a	3	136	140	active
Hoxb2	1	74.1	80	inactive
Hoxb2	2	78.3	69.6	inactive
Gstt3	1	120	110	active
Gstt3	2	62.4	94.6	inactive
Gstt3	3	59.6	30.5	inactive
